These are yes or no findings as the source states them, for the method shown. Binding seen in cells or lysates may run through a third protein. A result given as binding can be weak or reduced; the word gives no strength. Tags and fused reporters may be left off the sequences shown.
Molecular target: Mic60-MBP (human) (UniProt Q16891)
Test: pull-down; Mic60-MBP from bacterial supernatant immobilised on resin, incubated with purified GST fusion proteins or GST control; bound complexes washed, eluted, immunoblotted; only the binder purified

Amino acid sequences for entries named in this document (tags omitted). A change or cut given only in a name is not applied to a line headed by its entry.
UniProt Q16891: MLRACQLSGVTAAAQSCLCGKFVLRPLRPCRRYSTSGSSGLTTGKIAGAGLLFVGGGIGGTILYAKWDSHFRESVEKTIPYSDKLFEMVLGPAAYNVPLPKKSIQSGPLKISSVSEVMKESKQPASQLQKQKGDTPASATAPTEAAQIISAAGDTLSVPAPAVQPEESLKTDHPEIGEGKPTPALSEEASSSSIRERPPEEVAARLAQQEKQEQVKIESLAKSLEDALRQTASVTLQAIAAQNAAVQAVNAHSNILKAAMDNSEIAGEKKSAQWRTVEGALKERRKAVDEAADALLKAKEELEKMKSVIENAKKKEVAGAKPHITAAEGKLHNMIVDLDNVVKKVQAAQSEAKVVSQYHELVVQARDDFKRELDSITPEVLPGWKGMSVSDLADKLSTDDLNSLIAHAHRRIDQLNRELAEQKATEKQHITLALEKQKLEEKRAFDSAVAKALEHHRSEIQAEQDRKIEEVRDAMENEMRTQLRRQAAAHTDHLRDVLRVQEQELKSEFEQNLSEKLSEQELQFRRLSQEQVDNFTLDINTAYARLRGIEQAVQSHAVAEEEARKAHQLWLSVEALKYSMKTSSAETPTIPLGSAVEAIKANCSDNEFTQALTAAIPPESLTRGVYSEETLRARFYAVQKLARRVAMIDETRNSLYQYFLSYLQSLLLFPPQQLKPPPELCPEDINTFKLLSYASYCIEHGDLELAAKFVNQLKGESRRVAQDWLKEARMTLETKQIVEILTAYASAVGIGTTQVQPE

binding: binds
B1: TFB2M-GST (protein, UniProt Q9H5Q4 20-396)
chain: AGRFCILGSEAATRKHLPARNHCGLSDSSPQLWPEPDFRNPPRKASKASLDFKRYVTDRRLAETLAQIYLGKPSRPPHLLLECNPGPGILTQALLEAGAKVVALESDKTFIPHLESLGKNLDGKLRVIHCDFFKLDPRSGGVIKPPAMSSRGLFKNLGIEAVPWTADIPLKVVGMFPSRGEKRALWKLAYDLYSCTSIYKFGRIEVNMFIGEKEFQKLMADPGNPDLYHVLSVIWQLACEIKVLHMEPWSSFDIYTRKGPLENPKRRELLDQLQQKLYLIQMIPRQNLFTKNLTPMNYNIFFHLLKHCFGRRSATVIDHLRSLTPLDARDILMQIGKQEDEKVVNMHPQDFKTLFETIERSKDCAYKWLYDETLEDR

From PMC4303897
